Measurements: PubChem BioAssay AID1347071 (National Center for Advancing Translational Sciences (NCATS), 2019)
Out of some 410,000 compounds screened, about 260 (0.063%) were called active. Only results without a clear call are listed here; the source files them as inconclusive. The call rests on the fitted dose curve; in most records, active means well fitted activation curve with a large enough effect; inconclusive means small, poorly fitted or top-dose-only effect; inactive means no such curve, though single readings can be large or run the other way.

Test: qHTS for compounds that reverse cellular toxicity of Amyloid beta (A-beta) peptide in yeast: Primary Screen; further: nearly all actives have a fitted effect of over 55% in size
Conditions: yeast expressing A-beta42, growth rescue, OD600, 48 h
Source text: The A-beta peptide is produced by the processing of the amyloid precursor protein (APP) by two proteases, beta and gamma secretases. […] A-beta42 is regarded as the most amyloidogenic form due to its hydrophobicity; however, precisely how A-beta42 induces neurotoxicity is unclear. To understand further this biology and its potential therapeutic implications for human neurodegenerative disease, a quantitative high-throughput screen for compounds that reverse the cellular toxicity of the A-beta peptide was developed. A yeast based screen was used because it recapitulates the salient feature of protein mis-folding disorder accurately. This cell-based phenotypic screen provides a significant, unbiased advantage by letting the compounds and models inform us which proteins or pathways are most relevant. The ideal chemical candidates would therefore have activity in both our primary yeast and secondary neuronal toxicity assays, as well as in mouse models. […] For this luminescence assay, inhibition of A-beta rescues the toxic effect in the yeast cell, resulting in increase of signals and the desired phenotype of "Activator". […]
Two and a half microliter / well of yeast growth medium were dispensed in a 1536 assay plate. […] After 48 hr, the absorbance signal at 600 nm was obtained using the PerkinElmer ViewLux plate reader to assess yeast growth. […]
Potency means the concentration at half of the fitted maximal effect.

| SMILES | Potency |
| --- | --- |
| N/C(=N\O)c1c(N)no[n+]1[O-] | inconclusive: 11.2 µM |
